Inconclusive means that the source gave no clear call. Such entries were picked first, then a sample of the others. For some of these results: Where the call is inconclusive, the potency comes from a doubtful curve fit. Active and inactive are the calls of the source. Unless noted, calls come from the whole dose curve; as a rule, active = well fitted curve in the direction sought with a large enough effect in the repeat runs; inconclusive = weak or mixed curves; inactive = no such curve, though single readings can be large; an effect the other way counts as inactive or inconclusive.
Tests used:
[1] = target: Thyroid hormone receptor beta (Homo sapiens) (UniProt P10828); assay: qHTS assay for small molecule antagonists of thyroid hormone receptor beta signaling (AID 588547; active = well fitted inhibition curve with a large enough effect in the signal ratio, with a control signal flat, not every such curve was filed as active; inconclusive = small, poorly fitted or top-dose-only effect, or effect the other way, or a change in a side signal; the % refers to the signal ratio; note: potency is the fitted concentration of half-maximal effect); settings: TR-UAS-bla HEK293, beta-lactamase ratio, antagonist mode, 18 h
In short: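 TR-UAS-bla GripTite HEK293 cells in 2% charcoal/dextran FBS medium; compounds 0.59 nM to 92 uM with T3 at 0.4nM final, 18 h at 37 C. Beta-lactamase read by CCF4 fluorescence (460/530 nm); Hill fits gave IC50 and efficacy.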

Protein sequences, listed by entry. Tags and fused reporters are not part of them. Lines headed by an entry give the natural chain unless they say otherwise; changes in a name come on top.
UniProt P10828: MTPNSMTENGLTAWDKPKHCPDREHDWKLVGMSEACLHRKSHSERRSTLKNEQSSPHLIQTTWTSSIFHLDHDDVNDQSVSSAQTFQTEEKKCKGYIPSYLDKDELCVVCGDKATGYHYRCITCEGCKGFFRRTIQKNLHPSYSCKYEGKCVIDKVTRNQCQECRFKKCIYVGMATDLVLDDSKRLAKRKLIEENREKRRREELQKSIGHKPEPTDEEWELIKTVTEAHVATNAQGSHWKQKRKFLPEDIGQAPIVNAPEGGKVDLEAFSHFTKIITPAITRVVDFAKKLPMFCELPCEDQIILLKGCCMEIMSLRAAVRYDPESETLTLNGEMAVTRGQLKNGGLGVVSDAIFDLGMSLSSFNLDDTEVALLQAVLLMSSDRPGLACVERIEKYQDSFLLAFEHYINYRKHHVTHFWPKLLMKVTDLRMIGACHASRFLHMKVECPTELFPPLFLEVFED
UniProt P01375, whole entry, looked up: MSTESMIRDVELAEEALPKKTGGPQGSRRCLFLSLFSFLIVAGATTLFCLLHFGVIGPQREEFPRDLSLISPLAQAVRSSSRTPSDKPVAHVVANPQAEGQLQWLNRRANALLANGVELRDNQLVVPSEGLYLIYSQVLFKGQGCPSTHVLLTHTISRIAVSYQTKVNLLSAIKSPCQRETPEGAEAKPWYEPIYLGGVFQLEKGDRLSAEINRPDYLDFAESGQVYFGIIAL

[2] = qHTS assay for small molecule agonists of the antioxidant response element (ARE) signaling pathway (AID 651741; active = well fitted activation curve with a large enough effect in the signal ratio; inconclusive = small, poorly fitted or top-dose-only effect, or effect the other way, or a change in a side signal; the % refers to the signal ratio; note: potency is the fitted concentration of half-maximal effect); settings: HepG2 ARE-bla reporter, beta-lactamase FRET ratio, 16 h; activation: at 96 µM (top of the series) unless noted
In short: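 HepG2 ARE-bla reporter cells, 2,000/well; 5 h settle at 37 C/5% CO2; compound pin transfer (23 nL, DMSO); 16 h at 37 C; LiveBLAzer B/G FRET substrate, 2 h RT; fluorescence intensity read.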

[3] = target: Tumor necrosis factor (Homo sapiens) (UniProt P01375); assay: qHTS assay to identify small molecules that stimulate Tumor Necrosis Factor-alpha (TNF-alpha) secretion (AID 651757; active = well fitted curve in the direction sought with a large enough effect in the signal ratio; inconclusive = small, poorly fitted or top-dose-only effect, or a change in a side signal; inactive = no such curve, though single readings can be large or run the other way; the % refers to the signal ratio; note: 0% is about no effect); settings: Human cells, HTRF 665/615 ratio; activation (TNF-alpha secretion): at 92.2 µM (top of the series)
In short: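 THP-1 cells, 3000/well; compound 17 hrs, 37 C; add cryptate/XL665 anti-TNF-alpha antibody pair; 3 hr RT; TR-FRET (HTRF) read of secreted TNF-alpha. Quantitative HTS format.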

[4] = qHTS assay to identify small molecules that stimulate interleukin-8 (IL-8) secretion (AID 651758; active = well fitted activation curve with a large enough effect in the signal ratio; inconclusive = small, poorly fitted or top-dose-only effect, or effect the other way, or a change in a side signal; the % refers to the signal ratio; note: potency is the fitted concentration of half-maximal effect); settings: HTRF ratio (665/615); activation: at 92.2 µM (top of the series)
In short: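 Compounds are added to THP-1 cells (2000 per well) and left 16 hrs at 37 C. A labeled anti-IL-8 antibody pair is then added, and IL-8 secretion is measured by time-resolved FRET after 1-3 hrs at room temperature.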

[5] = qHTS assay for small molecule agonists of the antioxidant response element (ARE) signaling pathway measured by Nrf2-dependant transcriptional activity (AID 720636); settings: ARE-luc HepG2, Nrf2 luciferase reporter, 16 h; series mostly up to 92.4 µM; note: potency is the fitted concentration of half-maximal effect
In short: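 Nrf2-dependent transcription read as ONE-Glo luciferase signal from ARE-luc HepG2 reporter cells after 16 hr compound treatment at 37 C, 5% CO2, in assay medium with 1% dialyzed FBS.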

[6] = qHTS assay for small molecule antagonists of the retinoid-related orphan receptor gamma (ROR-gamma) signaling pathway - cell viability counter screen (AID 720652); settings: RORgamma reporter cell line viability counter screen; series mostly up to 92.2 µM;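 note: potency is the fitted concentration of half-maximal effect; compound exposure lasted 16 hr before ATP read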
In short: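 CHO RORE-LUC/TET-ROR line, 1,000 cells/well, 37 C 5% CO2 5 hr; cpd or DMSO + doxycycline induction, 16 hr. CellTiter-Glo, 30 min RT, luminescence = ATP content.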

[7] = qHTS assay for cell viability of HEK293 cells (AID 743288; active = well fitted curve in the direction sought with a large enough effect; inconclusive = small, poorly fitted or top-dose-only effect, or another doubt; inactive = no such curve, though single readings can be large; an effect the other way counts as inactive or inconclusive; note: potency is the fitted concentration of half-maximal effect; nearly all actives have a fitted effect of over 50% in size); settings: ATP luminescence (CellTiter-Glo), 18 h; max response: stronger effect = lower value
In short: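 After 18 h compound exposure at 37 C, parental HEK293 cells (2,000/well) are lysed with CellTiter-Glo and luminescence is read following 30 min at room temperature.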

In the case of CNc1ccc(O)cc1, the Potency [1] is reported as inconclusive: 50.1 µM [falling, single point], the Potency [2] is reported as active: 13.3 µM and the activation (TNF-alpha secretion) [3] is reported as inconclusive: 4.51%. For the same compound, the Potency [4] was inconclusive: 75 µM [inhibitor, single point], the Potency [5] was active: 37.6 µM and the Potency [6] was inconclusive: 9.44 µM [cytotoxic, full curve, poor fit]. The Potency [7] was active: 35.5 µM.

Reference: PubChem BioAssay (NCATS)
